Data source: PubChem BioAssay AID624150 (Cancer Research UK Cambridge, 2012)

- Test: 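Which chromatin factors steer differentiation of epidermal stem cells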 (primary screen)
- System: primary human epidermal keratinocytes
- Reagents: siRNA pool against human genes, 1-2 µM siRNA in 20 µl nucleofection
- Duration: 72 h after transfection plus 48 h differentiation (about 5 days)
- Treatment: five arms for 48 h: vehicle, AG1478 10 µM, BMP2/7 200 ng/ml, both together, or 10% serum
- Measurement: 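Transglutaminase 1 immunostaining divided by DNA staining in each well, background removed, then z-scored versus every test siRNA on that plate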
- Scale: z-score, vehicle: higher = more differentiation marker per cell
The whole screen tested 331 reagents; shown is a random part of them. 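Each arm had three replicate z-scores, but only the first replicate is printed; higher values mean more differentiation marker per cell.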 Not all columns of the deposit are shown.

With BRWD1 [SID135635611], what does the deposit list?
z-score, vehicle: 1.52

Which result is listed for SCMH1 [SID135635748]?
z-score, vehicle: -1.12

For RARA [SID135635722], what was measured?
z-score, vehicle: 0.666

With CHD6 [SID135635636], what was measured?
z-score, vehicle: -1.04

How did the screen score ARID4A [SID135635651]?
z-score, vehicle: 0.896

With STK31 [SID135635915], how do the results read?
z-score, vehicle: 2.08

What did the screen give for KDM5D [SID135635711]?
z-score, vehicle: -0.619

With MTF2 [SID135635812], what does the deposit list?
z-score, vehicle: -0.189

For KAT6B [SID135635677], what was measured?
z-score, vehicle: 0.479

Which result is listed for TTF2 [SID135635894]?
z-score, vehicle: -0.564

What is on record for ING1 [SID135635793]?
z-score, vehicle: -1.23

How did the screen score BAZ2B [SID135635618]?
z-score, vehicle: 0.537

What did the screen give for OGT [SID135635664]?
z-score, vehicle: -0.478

For TDRD1 [SID135635914], what was measured?
z-score, vehicle: 1.2

With RNF17 [SID135635905], what does the deposit list?
z-score, vehicle: 0.342

How did the screen score SETD3 [SID135635840]?
z-score, vehicle: -0.28

Which result is listed for SIRT1 [SID135635881]?
z-score, vehicle: -0.291

What did the screen give for PRMT8 [SID135635819]?
z-score, vehicle: -0.288

How did the screen score MBD3 [SID135635721]?
z-score, vehicle: -0.327

With CHD2 [SID135635627], what was measured?
z-score, vehicle: 0.244

For PWWP2A [SID135635829], how do the results read?
z-score, vehicle: -0.198

For TERF2IP [SID135635900], how do the results read?
z-score, vehicle: 0.486

With SIN3A [SID135635736], what was measured?
z-score, vehicle: -0.796

With MBTD1 [SID135635745], how do the results read?
z-score, vehicle: 0.685

With CBX2 [SID135635632], how do the results read?
z-score, vehicle: 0.309

How did the screen score SETD1A [SID135635832]?
z-score, vehicle: -0.483

How did the screen score KAT7 [SID135635666]?
z-score, vehicle: 0.0949

With LBR [SID135635903], how do the results read?
z-score, vehicle: 0.407

What did the screen give for SETD5 [SID135635849]?
z-score, vehicle: 1.14

For PHF10 [SID135635770], what does the deposit list?
z-score, vehicle: 1.05

With PHF12 [SID135635781], what does the deposit list?
z-score, vehicle: -0.233

Which result is listed for NPTXR [SID135635624]?
z-score, vehicle: 1.13

What is on record for PWWP2B [SID135635827]?
z-score, vehicle: 0.863

For ZCWPW2 [SID135635825], what does the deposit list?
z-score, vehicle: -0.664

Which result is listed for PRG4 [SID135635913]?
z-score, vehicle: 1.48

How did the screen score MORF4L1 [SID135635623]?
z-score, vehicle: -0.00773

Laid out differently: results already given
{"gene knocked down":"SETD1A","PubChem SID":"SID135635832","z-score, vehicle":-0.483}
{"gene knocked down":"KAT7","PubChem SID":"SID135635666","z-score, vehicle":0.0949}
